Measured values published in paper PMC3049581, “Development and evaluation of human AP endonuclease inhibitors in melanoma and glioma cell lines” (British Journal of Cancer, 2011).

Experiment: Fluorescence quenching assay
Conditions: 100 μM; >50% decrease in fluorescence = quencher

Q: With `O=C(O)c1cc2cc(F)ccc2[nH]1` [Compound 1, 5-fluoro-1H-indole-2-carboxylic acid] as the compound, how does the “Quencher (intrinsic fluorescence quenching)” value (from here on “Quencher”) read?
A: The value was “no”.

Q: Which “Quencher” value does the source give for `O=C(COc1ccc2ccccc2c1)Nc1ccc(O)c(-c2nc3ccccc3o2)c1` [Compound 2, N-(3-benzooxazol-2-yl-4-hydroxy-phenyl)-2-(2-naphthyloxy)acetamide] here?
A: Its value is “no”.

Q: Which “Quencher” value does the source give for `O=C(OCC(=O)N1NC(c2ccc3ccccc3c2)=CC1c1ccccc1)c1ccc([N+](=O)[O-])s1` (centres unmarked) [Compound 3, (3-(2-naphthyl)-5-phenyl-2,5-dihydropyrazol-1-yl) carbonylmethyl 5-nitrothiophene-2-carboxylate] here?
A: Its value is “no”.

Q: Which “Quencher” value does the source give for `Cc1ccc(-c2nc(S(=O)(=O)c3ccccc3)c(SCC(=O)Nc3ccc(F)cc3)o2)cc1` [Compound 4, N-(4-fluorophenyl)-2-(4-phenylsulfonyl-2-(p-tolyl)oxazol-5-yl) sulfanyl-acetamide] here?
A: Its value is “no”.

Q: With `O=C(CCCn1c(SCC(=O)Nc2nccs2)nc2ccsc2c1=O)NCc1ccc2c(c1)OCO2` [Compound 5, N-(benzo(1,3)dioxol-5-ylmethyl)-4-(2-oxo-4-(thiazol-2-ylcarbamoylmethylsulfanyl)-9-thia-3,5-diazabicyclo(4.3.0)nona-4,7,10-trien-3-yl)-butanamide] as the compound, how does the “Quencher” value read?
A: Its value is “no”.

Q: With `O=C(CSc1nc2ccccc2s1)CSc1nc2ccccc2s1` [Compound 6, 1,3-bis(1,3-benzothiazol-2-ylthio)acetone] as the compound, how does the “Quencher” value read?
A: Its value is “no”.

Q: With `N#CC(C(=O)c1cc2ccccc2o1)c1nc2ccccc2s1` (centres unmarked) [Compound 7, 3-benzofuran-2-yl-2-benzothiazol-2-yl-3-oxo-propanenitrile] as the compound, how does the “Quencher” value read?
A: Its value is “no”.

Same assay, conditions: 100 μM; >50% decrease in fluorescence = quencher; listed as compound 4

Q: Which “Quencher” value does the source give for `Cc1ccc(-c2nc(S(=O)(=O)c3ccccc3)c(SCC(=O)Nc3ccc(F)cc3)o2)cc1` [Compound 4, N-(4-fluorophenyl)-2-(4-phenylsulfonyl-2-(p-tolyl)oxazol-5-yl) sulfanyl-acetamide] here?
A: The value was “did not reveal any quenching effect”.
